This note sets out measurements from the supplement of paper PMC8728848.

Test in all cases: glycan array binding signal (z-score within array); higher = stronger binding
What all share (conditions): glycan notation: IUPAC condensed, linker removed

Assay [1] addresses Man(a1-3)[Man(a1-6)]Man(b1-4)GlcNAc(b1-4)GlcNAc. A digest of the protocol: (§1)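 The binding signal is a Z-score computed within each array and averaged over linkers. Arrays of the same protein sequence at different concentrations or buffers were also averaged together. Data originate from 3228 arrays in the Consortium for Functional Glycomics database, kept only where the protein sequence was available.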

The target in a further assay is Man(a1-6)Man. In short, it runs like this: as §1
The target in the next assay is Man(b1-4)GlcNAc. A digest of the protocol:
as §1

Another assay deals with Neu5Ac(a2-3)Gal. A digest of the protocol:
as §1

Assay [2] addresses Neu5Ac(a2-3)Gal(b1-3)GalNAc. In short, it runs like this: as §1
In assay [3] the target is Neu5Ac(a2-3)Gal(b1-3)GalNAc(b1-3)Gal(a1-4)Gal(b1-4)Glc. A digest of the protocol: as §1
The target in assay [4] is Neu5Ac(a2-3)Gal(b1-3)GalNAc(b1-4)[Neu5Ac(a2-3)]Gal(b1-4)Glc. A digest of the protocol:
as §1

Assay [5] has as its target Neu5Ac(a2-3)Gal(b1-3)GalNAc(b1-4)[Neu5Ac(a2-8)Neu5Ac(a2-3)]Gal(b1-4)Glc. A digest of the protocol:
as §1

For assay [6], the target named is Neu5Ac(a2-3)Gal(b1-3)GalNAc6S. In short, it runs like this:
as §1

The target of assay [7] is Neu5Ac(a2-3)Gal(b1-3)GlcNAc. A digest of the protocol:
as §1

The target in assay [8] is Neu5Ac(a2-3)Gal(b1-3)GlcNAc(b1-3)Gal(b1-3)GlcNAc. In short, it runs like this:
as §1

Assay [9] deals with Neu5Ac(a2-3)Gal(b1-3)GlcNAc(b1-3)Gal(b1-4)GlcNAc. A digest of the protocol:
as §1

For assay [10], the target named is Neu5Ac(a2-3)Gal(b1-3)GlcNAc(b1-3)GalNAc. In short, it runs like this: as §1
The target of assay [11] is Neu5Ac(a2-3)Gal(b1-3)GlcNAc6S. In short, it runs like this: as §1
For assay [12], the target named is Neu5Ac(a2-3)Gal(b1-3)[Fuc(a1-4)]GlcNAc. A digest of the protocol:
as §1

The target of assay [13] is Neu5Ac(a2-3)Gal(b1-3)[Fuc(a1-4)]GlcNAc(b1-3)Gal(b1-3)[Fuc(a1-4)]GlcNAc. In short, it runs like this:
as §1

Assay [14] addresses Neu5Ac(a2-3)Gal(b1-3)[Fuc(a1-4)]GlcNAc(b1-3)Gal(b1-4)[Fuc(a1-3)]GlcNAc. In short, it runs like this: as §1
Assay [15] concerns the target Neu5Ac(a2-3)Gal(b1-3)[Neu5Ac(a2-3)Gal(b1-4)]GlcNAc. A digest of the protocol: as §1
In assay [16] the target is Neu5Ac(a2-3)Gal(b1-3)[Neu5Ac(a2-6)]GalNAc. A digest of the protocol:
as §1

A further assay addresses Neu5Ac(a2-3)Gal(b1-4)Glc. In short, it runs like this: as §1
In assay [17] the target is Neu5Ac(a2-3)Gal(b1-4)GlcNAc. In short, it runs like this: as §1
Assay [18] deals with Neu5Ac(a2-3)Gal(b1-4)GlcNAc(b1-2)Man(a1-3)[GlcNAc(b1-2)Man(b1-4)GlcNAc(b1-2)Man(a1-6)]Man(b1-4)GlcNAc(b1-4)GlcNAc. A digest of the protocol:
as §1

The target of assay [19] is Neu5Ac(a2-3)Gal(b1-4)GlcNAc(b1-2)Man(a1-3)[Neu5Ac(a2-6)Gal(b1-4)GlcNAc(b1-2)Man(a1-6)]Man(b1-4)GlcNAc(b1-4)GlcNAc. In short, it runs like this: as §1

Some of the results follow.

B1: Flo11 (Saccharomyces cerevisiae), P08640 (protein)
chain: MQRPFLLAYLVLSLLFNSALGFPTALVPRGSSEGTSCNSIVNGCPNLDFNWHMDQQNIMQYTLDVTSVSWVQDNTYQITIHVKGKENIDLKYLWSLKIIGVTGPKGTVQLYGYNENTYLIDNPTDFTATFEVYATQDVNSCQVWMPNFQIQFEYLQGSAAQYASSWQWGTTSFDLSTGCNNYDNQGHSQTDFPGFYWNIDCDNNCGGTKSSTTTSSTSESSTTTSSTSESSTTTSSTSESSTTTSSTSESSTSSSTTAPATPTTTSCTKEKPTPPTTTSCTKEKPTPPHHDTTPCTKKKTTTSKTCTKKTTTPVPTPSSSTTESSSAPVPTPSSSTTESSSAPVTSSTTESSSAPVPTPSSSTTESSSAPVTSSTTESSSAPVTSSTTESSSAPVPTPSSSTTESSSAPVTSSTTESSSAPVTSSTTESSSAPVTSSTTESSSAPVTSSTTESSSAPVPTPSSSTTESSSAPVTSSTTESSSAPVPTPSSSTTESSSAPVTSSTTESSSAPVPTPSSSTTESSSAPAPTPSSSTTESSSAPVTSSTTESSSAPVPTPSSSTTESSSTPVTSSTTESSSAPVPTPSSSTTESSSAPVPTPSSSTTESSSAPAPTPSSSTTESSSAPVTSSTTESSSAPVPTPSSSTTESSSAPVPTPSSSTTESSSAPVPTPSSSTTESSSAPVTSSTTESSSAPVTSSTTESSSAPVPTPSSSTTESSSAPVPTPSSSTTESSSAPVPTPSSSTTESSSAPVTSSTTESSSAPVPTPSSSTTESSSAPVPTPSSSTTESSSAPVPTPSSSTTESSVAPVPTPSSSSNITSSAPSSTPFSSSTESSSVPVPTPSSSTTESSSAPVSSSTTESSVAPVPTPSSSSNITSSAPSSIPFSSTTESFSTGTTVTPSSSKYPGSQTETSVSSTTETTIVPTKTTTSVTTPSTTTITTTVCSTGTNSAGETTSGCSPKTVTTTVPTTTTTSVTTSSTTTITTTVCSTGTNSAGETTSGCSPKTITTTVPCSTSPSETASESTTTSPTTPVTTVVSTTVVTTEYSTSTKPGGEITTTFVTKNIPTTYLTTIAPTPSVTTVTNFTPTTITTTVCSTGTNSAGETTSGCSPKTVTTTVPCSTGTGEYTTEATTLVTTAVTTTVVTTESSTGTNSAGKTTTGYTTKSVPTTYVTTLAPSAPVTPATNAVPTTITTTECSAATNAAGETTSVCSAKTIVSSASAGENTAPSATTPVTTAIPTTVITTESSVGTNSAGETTTGYTTKSIPTTYITTLIPGSNGAKNYETVATATNPISIKTTSQLATTASASSVAPVVTSPSLTGPLQSASGSAVATYSVPSISSTYQGAANIKVLGNFMWLLLALPVVF
On to B1, for which the “glycan array binding signal (z-score)” value is -0.615 in assay [1]; -0.924 in the assay with Man(a1-6)Man; -0.041 with Man(b1-4)GlcNAc; -0.476 with Neu5Ac(a2-3)Gal; -0.731 in assay [2]; -0.861 in assay [3]. Also, the “glycan array binding signal (z-score)” value is 0.155 in assay [4]; 0.779 in assay [5]; -0.833 in assay [6]; 0.108 in assay [7]; -0.416 in assay [8]; -0.654 in assay [9]. Also, the “glycan array binding signal (z-score)” value was -0.357 in [10]; -0.836 in [11]; -0.342 in [12]; -0.768 in assay [13]; -0.273 in [14]; -0.725 in [15]. Further, the “glycan array binding signal (z-score)” value was 0.464 in assay [16]; -0.539 with Neu5Ac(a2-3)Gal(b1-4)Glc; -0.28 in assay [17]; 0.381 in [18]; -0.204 in assay [19].
